According to patent US20230241164A1, “C-Type Natriuretic Peptides and Methods Thereof in Treating Cancer” (PHARMAIN CORPORATION, priority 2020, published 2023):
“Also recorded” adds a separate entry of the source. Not every detail of the peptide structures is certain; ends, links or a residue may be inferred. Some entries share one result that the patent states for a list of compounds.

What was measured:
plasma cyclic-GMP = experiment: Pharmacodynamic study: plasma cyclic-GMP after subcutaneous bolus in C57BL/6J mice; format: in vivo; conditions: subcutaneous 1.0 mg/Kg, FIG. 1B
[1] = Immune activation in normal healthy mice (blood FACS, spleen gene expression); format: in vivo
Method: In this study, male C57BL/6J mice (6 weeks old n=3) were purchased from Kyodo (Saga, Japan) and maintained under a 12-hour light/12-hour dark cycle with free access to water and standard mouse diet (MF diet; Oriental Yeast Co., Ltd. Tokyo Japan). Mice were treated with a bolus dose of 0, 0.1, 0.3, and 1.0 mg/kg CNP derivative or dCNP (described in Example 1) in buffer (Methionine 100 mM (Tokyo Chemical Industry Co., Ltd., Tokyo, Japan), sucrose 100 mM (Tokyo Chemical Industry Co., Ltd.), histidine 50 mM (Tokyo Chemical Industry Co., Ltd.); in H2O (Otsuka Pharmaceutical, Tokushima, Japan)) or buffer alone (for control group). Administration is by bolus subcutaneous injection under isoflurane anesthesia, at day 1, 2, 3, 4, and 5. Blood was harvested on day 5 under the isoflurane vapor and plasma were obtained by added EDTA and red blood cells were removed by pharma lyse (BD, Franklin Lakes, N.J.). Cells were analyzed by FACS (BD, Franklin lakes, NJ). The spleen was harvested on day 5 under isoflurane vapor, then placed in the Tri reagent (Cosmobio, Tokyo, Japan) for further analysis. Statistical analysis was performed by Student t-tests by using GraphPad Prism *P<0.05 vs. Control. **P<0.01 vs Control (n=5).

[2] = system: splenocytes exposed to LM8 mouse osteosarcoma cancer cell line; experiment: LM8-elicited IFNg production in splenocytes (ELISA); format: cell-based; conditions: 0.5 and 5 nM, 96 hours, dose dependent manner
[3] = system: TRAMPC-1 mouse prostate cancer cells; experiment: Prostate cancer subcutaneous model, treatment from day 6, tumor size; format: in vivo, mice
Method: In this study, male C57BL/6J mice (6 weeks old, male, n=10) were purchased from Kyodo (Saga, Japan) and maintained under a 12-hour light/12-hour dark cycle with free access to water and standard mouse diet (MF diet; Oriental Yeast Co., Ltd. Tokyo Japan). Mice were implanted with TRAMPC-1 mouse prostate cancer cells (1,000,000 cells/mouse) (ATCC, Manassas, Va.) in the subcutaneous. From the 6th day (early stage of tumor growth), mice were treated with a bolus dose of dCNP (described in Example 1) (0.3 mg/kg s.c. or 1.0 mg/kg s.c.) with or without Anti-CD8 antibody (a-CD8; 5 mg/Kg i.p.; BioX cells, West Lebanon, N.H.) in buffer containing Methionine 100 mM (Tokyo Chemical Industry Co., Ltd., Tokyo, Japan); Sucrose 100 mM (Tokyo Chemical Industry Co., Ltd.); Histidine 50 mM (Tokyo Chemical Industry Co., Ltd.); in H2O (Otsuka Pharmaceutical, Tokushima, Japan)], Docetaxel (1 mg/kg i.p.) in Saline with or without Anti-CD8 Ab (5 mg/kg i.p.) as reference control, and or with Phosphate buffered saline (PBS) alone via i.p. as control. Mice were treated total of 14 days (5 days of once daily, 2 days of rest, 5 days of once-daily treatment and 2 days rest). Anti-CD8 Ab (a-CD8) was administered on −2, 1, 4, 7, 10 and 13th day. Tumor sizes were measured with caliper. Statistical analysis was performed by Student t-tests by using GraphPad Prism *P<0.0001 vs. Control or a-CD8 group (n=10). […]

[4] = system: TRAMPC-1 mouse prostate cancer cells; experiment: Gene expression within prostate tumor (quantitative RT-PCR); format: in vivo, mice; conditions: tumor harvested at day 30
Method: In this study, male C57BL/6J mice (6 weeks old, male, n=10) were purchased from Kyodo (Saga, Japan) and maintained under a 12-hour light/12-hour dark cycle with free access to water and standard mouse diet (MF diet; Oriental Yeast Co., Ltd. Tokyo Japan). Mice were implanted with TRAMPC-1 mouse prostate cancer cells (1,000,000 cells/mouse) (ATCC, Manassas, Va.) in the subcutaneous. From the 19th day (averaged tumor size was 70 mm3), mice were treated with a bolus dose of long acting CNP derivative or dCNP (described in Example 1) (0.3 mg/kg s.c. or 1.0 mg/kg s.c.) in buffer [Methionine 100 mM (Tokyo Chemical Industry Co., Ltd., Tokyo, Japan); Sucrose 100 mM (Tokyo Chemical Industry Co., Ltd.); Histidine 50 mM (Tokyo Chemical Industry Co., Ltd.); in H2O (Otsuka Pharmaceutical, Tokushima, Japan)], Docetaxel (DTX 1 mg/kg i.p.) in Saline, all with or without anti-CD8 (5 mg/Kg i.p.; BioX cell; West Lebanon, N.H.) or Phosphate buffered saline (PBS) alone via i.p. All Docetaxel groups were used as mechanism of action comparator chemotherapeutic agent. Mice were treated for 2 weeks (5 days of once daily, 2 days of rest, 5 days of once-daily treatment and 2 days rest). Anti-CD8 Ab was administered every 3 days starting day 19th. Tumor was harvested at day 30 and extracted RNA, then Quantitative RT-PCR was performed; error bars are SEM. Statistical analysis was performed by Student t-tests by using GraphPad Prism *P<0.05 or **P<0.01 vs. Control group (n=3-6).

[5] = system: E0771 mouse breast cancer cells; experiment: E0771 breast cancer model, Treg, CD69+ cells and tumor with dCNP and/or anti-PD1 antibody; format: in vivo, mice; conditions: dCNP 0.3 mg/kg SC daily for 5 days and/or anti-PD1 antibody 5 mg/Kg IP twice, 12th day
[6] = system: small-cell lung cancer cells; conditions: cell culture; cited from earlier work
[7] = system: breast adenocarcinoma cells; conditions: cell culture; cited from earlier work
cancer cells = conditions: at 1 μM; cited from earlier work
[8] = bolus injection, healthy human volunteers; cited from earlier work
[9] = normal healthy mice, 0.1, 0.3, 1.0 mg/kg s.c. day 1-5

## CCCCCCCCCCCCCCCCCC(=O)N[C@@H](CCCCN)C(=O)N[C@@H](CCCCN)C(=O)N[C@@H](CCCCN)C(=O)N[C@@H](CCCCN)C(=O)NCC(=O)NCC(=O)NCC(=O)NCC(=O)N[C@@H](CC(C)C)C(=O)N[C@@H](CO)C(=O)N[C@@H](CCCCN)C(=O)NCC(=O)N[C@H]1CSSC[C@@H](C(=O)O)NC(=O)CNC(=O)[C@H](CC(C)C)NC(=O)CNC(=O)[C@H](CO)NC(=O)[C@H](CCSC)NC(=O)[C@H](CO)NC(=O)CNC(=O)[C@H]([C@@H](C)CC)NC(=O)[C@H](CCCNC(=N)N)NC(=O)[C@H](CC(=O)O)NC(=O)[C@H](CC(C)C)NC(=O)[C@H](CCCCN)NC(=O)[C@H](CC(C)C)NC(=O)CNC(=O)[C@H](Cc2ccccc2)NC1=O [dCNP]
Plasma cyclic-GMP
  duration of significant elevation of plasma cyclic-GMP: at least 24 hours
[1]; [9]
  T-cells (CD4) in blood: increase
  natural killer (NK) cells in blood: increase
[1]; normal healthy mice, day 5
  CD4 gene expression in the spleen: significantly elevated
  CD8 gene expression in the spleen: significantly elevated
  CD86 gene expression in the spleen: significantly elevated
  ICOS gene expression in the spleen: significantly elevated
[2]
  interferon gamma (IFNg) production: increased
[3]; 0.3 and 1.0 mg/kg s.c.
  prostate cancer growth (tumor size at day 20): significantly effective in suppressing prostate cancer growth
[3]; Anti-CD8 Ab 5 mg/kg i.p.
  tumor growth suppressing effect in the presence of Anti-CD8 antibody: neutralized
[4]
  Ang 2 gene expression within the prostate tumor: inhibited
  TGFβ gene expression within the prostate tumor: inhibited
  alpha-smooth muscle actin (α-SMA) gene expression within the prostate tumor: inhibited
[5]
  CD69+ cells: increase
  Treg cells: decrease
  tumor volume: decrease

## CC[C@H](C)[C@@H]1NC(=O)[C@H](CCCNC(=N)N)NC(=O)[C@H](CC(=O)O)NC(=O)[C@H](CC(C)C)NC(=O)[C@H](CCCCN)NC(=O)[C@H](CC(C)C)NC(=O)CNC(=O)[C@H](Cc2ccccc2)NC(=O)[C@@H](NC(=O)CNC(=O)[C@H](CCCCN)NC(=O)[C@H](CO)NC(=O)[C@H](CC(C)C)NC(=O)CN)CSSC[C@@H](C(=O)O)NC(=O)CNC(=O)[C@H](CC(C)C)NC(=O)CNC(=O)[C@H](CO)NC(=O)[C@H](CCSC)NC(=O)[C@H](CO)NC(=O)CNC1=O [native CNP]
Plasma cyclic-GMP; at 2 hours and beyond
  elevation of plasma cyclic-GMP compared to the baseline: did not show significant elevation; also recorded: did not have significant elevation
[6]
  growth of small-cell lung cancer cells: did not inhibit growth
[7]
  growth of breast adenocarcinoma cells: did not inhibit growth
Cancer cells
  anti-cancer effects in general: no anti-cancer effects
[8]
  duration of increase in plasma cyclic-GMP: less than 90 minutes
